Reference: PubChem BioAssay AID1259308 (NCATS, 2017)
The deposit covers about 59,000 reagents; this is an unselected part. About 1,510 of them (2.6%) were called active. 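Calls use total luciferase alone and ignore viability, so some active siRNAs may act by altering cell number.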 Reagents against one gene are numbered here. Further read-outs or replicates are left out here. No sequences are given here.

Purpose: 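Knock-downs that increase output of a recombinant reporter protein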 (primary screen)
System: human HEK293 embryonic kidney cells stably expressing firefly luciferase (HEK-CMV-Luc2-Hygro)
Knock-down reagent: single siRNA against human genes, 0.8 pmol siRNA per well
Duration: 72 h
Measured: 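Luciferase light (ONE-Glo) measured on one replicate plate set and viability (CellTiter-Glo) on the other, scaled to a negative control siRNA, with robust z-scores and luciferase per cell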
Reading the numbers: total luciferase, z-score: higher = more reporter protein produced
Active means: 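Active when the median/MAD z-score for overall luciferase is greater than 3; a gene was taken forward for validation with new siRNAs if at least two of its three siRNAs passed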
Calls: active = raised luciferase; inactive = no rise

KSR1 #1: total luciferase, z-score = -0.0892; activity call = inactive
KSR1 #2: total luciferase, z-score = -1.86; activity call = inactive
KSR1 #3: total luciferase, z-score = -0.738; activity call = inactive
NHERF4 #1: total luciferase, z-score = 0.0132; activity call = inactive
NHERF4 #2: total luciferase, z-score = 6.71; activity call = active
NHERF4 #3: total luciferase, z-score = -0.288; activity call = inactive
LINC02210 #1: total luciferase, z-score = 0.332; activity call = inactive
LINC02210 #2: total luciferase, z-score = 0.32; activity call = inactive
LINC02210 #3: total luciferase, z-score = 1.28; activity call = inactive
LINC02210 #4: total luciferase, z-score = 0.0541; activity call = inactive
LINC02210 #5: total luciferase, z-score = 0.18; activity call = inactive
LINC02210 #6: total luciferase, z-score = 0.0337; activity call = inactive

2 consecutive reagents already listed, quoted:
NHERF4 #2: total luciferase, z-score = 6.71; activity call = active
NHERF4 #3: total luciferase, z-score = -0.288; activity call = inactive
